Patent publication US20080023859A1 (Toagosei Co., Ltd., priority 2003, published 2008)

Test: general procedure: Fmoc solid-phase peptide synthesis; HATU/DIEA
Conditions: conjugation step; for final HPLC purity: HPLC 0.1% TFA water:methanol=1:1

Substance	conjugation yield [%]	final HPLC purity [%]
NH2-Glu(pAP-Man)-Val-Pro-Gly-Val-Gly-Val-Pro-Gly-Val-Gly-pAP-Man	21.3	95.1
Ac-Val-Pro-Gly-Val-Gly-Val-Pro-Gly-Val-Gly-pAP-Man	73	97.2
NH2-Val-Pro-Gly-Val-Gly-Val-Pro-Gly-Val-Gly-pAP-Man	4.4	98.3
